# In paper PMC8208975, “Extracellular mRNA transported to the nucleus exerts translation-independent function”:
# Test system: T1, ZC3H12D short isoform (hZC36) (Homo sapiens)
# T1 sequence (looked up, limits assumed): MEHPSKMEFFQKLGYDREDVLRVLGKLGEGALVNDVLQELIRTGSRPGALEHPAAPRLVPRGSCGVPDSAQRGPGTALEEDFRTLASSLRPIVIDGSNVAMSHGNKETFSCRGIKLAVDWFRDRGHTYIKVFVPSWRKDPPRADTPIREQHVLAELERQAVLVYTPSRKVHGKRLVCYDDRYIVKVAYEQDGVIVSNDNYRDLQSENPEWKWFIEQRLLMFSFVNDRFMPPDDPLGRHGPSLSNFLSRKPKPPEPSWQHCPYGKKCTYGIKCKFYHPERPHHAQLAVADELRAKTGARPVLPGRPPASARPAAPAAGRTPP
# Assay: competition with a labelled probe
# Conditions: unlabeled 5 uM vs 50 nM biotin-probe 5; EMSA: 100 mM HEPES pH 7.3, 200 mM KCl, 10 mM MgCl2, 10 mM DTT, glycerol, tRNA; recombinant protein; protein details: C-terminal myc-FLAG (pCMV6-Entry); label: 3'-biotin (unlabeled as competitor)
sequence,measurement,value
UAUUUAUUUAUGUAUUUAUUGAUUGGUUGAUCUAUUUAAGUUGAUUCAAG [EMSA probe 5],binding result,binds

# Construct, isoform or probe ends are uncertain for at least one entry. At least one verdict was read from the data and is not stated in words by the source. Protein sequences can lack the tags named with them.
